Results are given in words; binding and its absence hold for the method and conditions named. Some binding calls cover weakened binding; strength is not graded here.
Target: VibO, NADPH/FAD-dependent monooxygenase (oxepinone-forming enzyme) of Boreostereum vibrans (Boreostereum vibrans)
Experiment: crystal structure; VibO in complex with FAD, sitting-drop vapor diffusion at 16 °C, 2.43 Å; four VibO molecules in the asymmetric unit forming two symmetric dimers; both purified

B1: VibO, NADPH/FAD-dependent monooxygenase (oxepinone-forming enzyme) of Boreostereum vibrans (enzyme, UniProt A0AA82WP17 1-653)
chain: MAAVENFEGYVEPELFERPGTSLPNKLGVMPQLTWPNVLNGTNCEKPAVPNYKPPSKVDVIIIGAGPVGLTTAACLLRQGITVRILDRSPHPLPVGRADGLQPRSMEVFDLLGLGEEVYHVGIRVEHTTVYKDGKQHIFAESHQAPGNEAHYTGLHACTQTEVEHLLIRDLIRHDILVERPCTATSYTFDEEADASVTHPITVNITNEATGAEEVVTARFLVGSDGAHSMIRKSLPIEFPGVKTDLHWGIVDAVINSDFPHRWTFGTVLNSEYGGCLIIPRERNMVRLYVQLRAEPGKAFDHSKWGPEEILVILNKVFAPYTLSYAEPVDWYTILTINERVATSFTYKDRIFLAGDSCHVHSAKGAFGMNTGVMDAHNLAWKLAMLCRGIAKPSLLASYDVERRENALRAVATSARYLRFVGNCTFQAIDGSGEVDKEADELVVPPGEDKDVFYFKKFVGQVGRFLIGLDVDYAENALNKLSPAVSRARAGYRASNPRVALSRSHSGRLYHSFGHLGQFTLLVFASNMGGALNAKLHALDSYLAGPSSFYHAYGGADTFKIVVVVRATPSQADQRVKTFPFLSKAGHTVYDDQLPLSHFGGDAHALYGVSHEEGAIVVVRPDSWIGTSSTISDARSLESYFDGFLFKSTEGSY
- binding: binds

From publication PMC10257657, “A flavin-monooxygenase catalyzing oxepinone formation and the complete biosynthesis of vibralactone” (Nature Communications, 2023)
